Experimental findings from paper PMC10880206 are described below.

Amino acid sequences for entries named in this document (tags omitted).
UniProt P42224: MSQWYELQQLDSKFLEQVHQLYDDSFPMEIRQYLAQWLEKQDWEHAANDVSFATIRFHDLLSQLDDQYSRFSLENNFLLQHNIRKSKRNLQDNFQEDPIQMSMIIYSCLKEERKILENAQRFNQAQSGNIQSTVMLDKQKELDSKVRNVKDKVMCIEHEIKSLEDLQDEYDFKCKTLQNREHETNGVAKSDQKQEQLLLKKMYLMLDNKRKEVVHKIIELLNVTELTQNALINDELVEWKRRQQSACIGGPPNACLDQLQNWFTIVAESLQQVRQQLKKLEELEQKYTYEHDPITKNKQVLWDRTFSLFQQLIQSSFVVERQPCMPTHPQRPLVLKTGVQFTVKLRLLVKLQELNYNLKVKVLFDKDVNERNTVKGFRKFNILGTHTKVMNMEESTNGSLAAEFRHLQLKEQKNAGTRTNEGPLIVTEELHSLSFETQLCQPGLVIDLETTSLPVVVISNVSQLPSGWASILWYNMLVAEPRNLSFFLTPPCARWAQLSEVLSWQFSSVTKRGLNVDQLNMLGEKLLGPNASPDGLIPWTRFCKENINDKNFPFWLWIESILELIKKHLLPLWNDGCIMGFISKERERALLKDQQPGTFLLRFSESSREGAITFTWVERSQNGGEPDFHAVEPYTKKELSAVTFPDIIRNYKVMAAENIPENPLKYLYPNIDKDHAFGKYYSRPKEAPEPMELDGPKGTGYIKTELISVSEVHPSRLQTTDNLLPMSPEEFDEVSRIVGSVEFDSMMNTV

Results are given in words; binding and its absence hold for the method and conditions named. In cells and extracts the contact can be indirect. Some results given as binding are weak or reduced against the parent protein; the word gives no strength. For some of these results: Where a sequence is shown, tags or fusion partners need not be part of it.

Assay [1] concerns the target T1, LATS2 (endogenous, KLE cells) (human (endogenous in KLE)) (UniProt Q9NRM7).
T1 sequence: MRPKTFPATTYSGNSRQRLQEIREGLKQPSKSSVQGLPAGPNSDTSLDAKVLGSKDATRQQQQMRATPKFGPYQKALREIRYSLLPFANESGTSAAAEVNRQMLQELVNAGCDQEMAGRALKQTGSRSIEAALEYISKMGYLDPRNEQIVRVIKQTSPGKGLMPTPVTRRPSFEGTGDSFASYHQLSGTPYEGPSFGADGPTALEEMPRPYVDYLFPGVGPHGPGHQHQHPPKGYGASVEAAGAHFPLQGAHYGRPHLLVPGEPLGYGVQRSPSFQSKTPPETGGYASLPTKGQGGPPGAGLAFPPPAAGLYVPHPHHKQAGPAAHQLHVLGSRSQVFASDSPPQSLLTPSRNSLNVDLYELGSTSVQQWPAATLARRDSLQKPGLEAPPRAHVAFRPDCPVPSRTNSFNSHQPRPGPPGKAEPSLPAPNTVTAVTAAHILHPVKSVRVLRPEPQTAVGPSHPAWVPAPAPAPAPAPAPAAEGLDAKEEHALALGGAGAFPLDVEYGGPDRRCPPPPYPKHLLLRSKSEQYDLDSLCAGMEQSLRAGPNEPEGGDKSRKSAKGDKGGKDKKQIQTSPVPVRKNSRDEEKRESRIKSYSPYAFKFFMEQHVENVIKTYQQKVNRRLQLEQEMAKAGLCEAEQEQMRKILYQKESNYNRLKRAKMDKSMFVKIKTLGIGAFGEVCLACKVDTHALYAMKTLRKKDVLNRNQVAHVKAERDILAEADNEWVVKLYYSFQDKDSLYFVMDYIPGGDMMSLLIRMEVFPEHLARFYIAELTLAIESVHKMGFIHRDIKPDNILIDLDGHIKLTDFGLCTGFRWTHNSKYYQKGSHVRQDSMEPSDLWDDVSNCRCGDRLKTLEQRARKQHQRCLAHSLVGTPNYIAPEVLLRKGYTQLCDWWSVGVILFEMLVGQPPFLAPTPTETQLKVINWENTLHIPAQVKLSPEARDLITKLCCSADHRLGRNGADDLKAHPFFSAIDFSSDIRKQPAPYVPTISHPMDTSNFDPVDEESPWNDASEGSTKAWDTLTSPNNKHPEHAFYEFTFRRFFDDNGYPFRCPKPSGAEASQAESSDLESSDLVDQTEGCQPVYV
Briefly: co-IP; endogenous proteins in KLE cell lysate, pre-cleared with protein-A/G agarose; immunoprecipitated overnight with anti-LATS1, anti-LATS2 or anti-STAT1 antibody, then protein-A/G agarose 2 h at 4 °C; western blotting. On the technique in general: In western blotting, separated proteins are transferred to a membrane and probed.

Assay [2] has as its target T2, LATS1 (endogenous, KLE cells) (human (endogenous in KLE)) (UniProt O95835).
T2 sequence: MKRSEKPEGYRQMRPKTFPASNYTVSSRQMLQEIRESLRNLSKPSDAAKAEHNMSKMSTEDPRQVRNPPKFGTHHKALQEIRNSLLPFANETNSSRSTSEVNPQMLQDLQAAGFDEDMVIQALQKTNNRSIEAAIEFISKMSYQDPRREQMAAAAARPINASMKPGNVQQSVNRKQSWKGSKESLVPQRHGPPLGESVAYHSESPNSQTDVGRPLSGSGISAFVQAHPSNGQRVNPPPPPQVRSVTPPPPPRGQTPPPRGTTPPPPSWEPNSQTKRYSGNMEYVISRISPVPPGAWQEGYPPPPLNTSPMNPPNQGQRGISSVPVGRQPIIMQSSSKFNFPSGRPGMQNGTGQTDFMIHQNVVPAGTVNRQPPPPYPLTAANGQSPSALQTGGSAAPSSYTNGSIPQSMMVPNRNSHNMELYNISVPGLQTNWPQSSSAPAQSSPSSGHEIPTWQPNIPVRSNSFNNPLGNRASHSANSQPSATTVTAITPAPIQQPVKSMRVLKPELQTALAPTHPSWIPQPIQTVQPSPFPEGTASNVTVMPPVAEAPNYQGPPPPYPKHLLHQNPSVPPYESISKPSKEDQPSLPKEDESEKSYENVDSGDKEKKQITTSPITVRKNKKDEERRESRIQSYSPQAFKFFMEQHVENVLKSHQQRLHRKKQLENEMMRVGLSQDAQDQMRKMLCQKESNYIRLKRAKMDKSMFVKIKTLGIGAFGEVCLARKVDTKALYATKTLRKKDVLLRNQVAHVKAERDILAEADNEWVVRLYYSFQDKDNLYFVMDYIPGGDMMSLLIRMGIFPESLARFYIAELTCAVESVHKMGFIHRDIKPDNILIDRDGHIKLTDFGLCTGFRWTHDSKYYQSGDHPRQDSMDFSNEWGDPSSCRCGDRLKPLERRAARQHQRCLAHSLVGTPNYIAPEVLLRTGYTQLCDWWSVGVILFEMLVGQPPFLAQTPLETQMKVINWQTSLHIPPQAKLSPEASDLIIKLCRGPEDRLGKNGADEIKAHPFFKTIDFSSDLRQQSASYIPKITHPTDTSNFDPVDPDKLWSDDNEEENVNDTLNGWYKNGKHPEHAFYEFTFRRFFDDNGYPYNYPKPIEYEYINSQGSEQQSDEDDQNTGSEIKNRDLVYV
The description is as above.

The target of a further assay is T3, Flag-LATS1 (UniProt O95835).
T3 sequence: T2 sequence
Briefly: co-IP; Flag-LATS1 or Flag-LATS2 and myc-STAT1 co-expressed in 293T cells for 24 h; lysis in 50 mM Tris-HCl pH 8.0, 150 mM NaCl, 0.05 mM EDTA, 1% NP40, 10% glycerol; immunoprecipitated overnight with anti-FLAG beads; western blotting.

A further assay deals with T4, Flag-LATS2 (UniProt Q9NRM7).
T4 sequence: T1 sequence
Described as above.

Take “STAT1 (endogenous, KLE cells) (from UniProt P42224 1-750)”: the binding entry in assay [1] and in assay [2] was “binds” throughout.

With myc-STAT1 (from UniProt P42224 1-750), the binding entry in the assay with Flag-LATS1 and with Flag-LATS2 was “binds” in each case.
